Measurements taken from patent US20240368299A1 (JIANGSU KANION PHARMACEUTICAL, published 2024).
These are yes or no findings as the source states them, for the method shown. Some results given as binding are weak or reduced against the parent protein; the word gives no strength. Where a sequence is shown, tags or fusion partners need not be part of it.

Legend:
[1] = biological target: T1, recombinant human CD73 protein with C-terminal 6xHis tag (human) (UniProt P21589); assay: affinity test (summary in embodiment 1)
T1 sequence: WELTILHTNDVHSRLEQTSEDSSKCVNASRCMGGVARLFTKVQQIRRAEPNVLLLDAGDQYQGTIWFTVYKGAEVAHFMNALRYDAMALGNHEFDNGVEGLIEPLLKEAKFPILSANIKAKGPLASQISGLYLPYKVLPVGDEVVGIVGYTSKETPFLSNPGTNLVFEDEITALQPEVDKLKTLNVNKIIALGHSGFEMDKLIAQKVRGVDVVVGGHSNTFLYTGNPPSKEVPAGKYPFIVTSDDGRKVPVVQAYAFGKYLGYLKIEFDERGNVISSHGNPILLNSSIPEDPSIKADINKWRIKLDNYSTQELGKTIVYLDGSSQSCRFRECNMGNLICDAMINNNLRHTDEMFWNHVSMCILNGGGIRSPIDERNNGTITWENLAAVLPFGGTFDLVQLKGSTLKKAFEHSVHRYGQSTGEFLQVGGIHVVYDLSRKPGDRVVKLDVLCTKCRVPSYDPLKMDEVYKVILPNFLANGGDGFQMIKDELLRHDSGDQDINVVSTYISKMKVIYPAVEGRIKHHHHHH

[2] = biological target: T1, recombinant human CD73 protein with C-terminal 6xHis tag (human); assay: SPR, Biacore T200

B1: anti-human CD73 monoclonal antibody 7-C10-Ba-C2 (antibody, V domains shown)
VH: EVQLQQSGPELVKPGASMKISCKASGYSFTGYTMNWVKQSHGKNLEWIGFITPYNGDTIYNQKFKGKATVTVDKSSSTAYMDLLSLTSEDSAVYYCAREGYDGGYFDYWGQGTTLTVSS
VL: DIQMTQSPASLSASVGETVTITCRASENIYSYLAWYQQKQGKSPQLLVYNTQTLAEGVPSRFSGSGSGTQFSLKINSLQPEDFGSYYCQHHYGTPMYPFGGGTKLEIK
notes: Mouse (BABL/c) hybridoma antibody purified from ascitic fluid; also called antibody of the present invention
binding [1]: binds
binding [2]: binds
